Results: the supplement of paper PMC5949888
Most values lie at the floor of the assay. Slopes are relative: functional sequences can read slightly below zero.

system: Saccharomyces cerevisiae PS128 hsf1 delta, HSF1(1-493) fusion; test: growth estimate (transactivation domain function in HSF1 fusion, heat-shock survival) (a.u. (slope of normalised read count over time)); higher = stronger growth at 37°C, i.e. more transactivation activity; conditions: library: random library

Row | Substance | growth estimate
1 | WDQGWGRD | < -0.25
2 | LVGGYSPL | < -0.25
3 | PQVWTNGGLRSTRDSVRH | < -0.25
4 | AGCTFRGT | < -0.25
5 | SHAGH | < -0.25
6 | IESGSHILA | < -0.25
7 | RWTRGREVLSVLECRCSCRR | < -0.25
8 | LRGFPHYPQ | < -0.25
9 | KPGVQEQCTATFWMSMGRHM | < -0.25
10 | DEGP | < -0.25
11 | IERIMLQAGYDRNHERTLTP | < -0.25
12 | TTMEQGWTVFGLIRTRVPTQ | < -0.25
13 | CTKTVAFNLTSSFLQCEVWL | < -0.25
14 | LVSGLDCCHYEVRTHRGERL | -0.194
15 | RSTAM | < -0.25
16 | RHKDI | < -0.25
17 | PRPSL | < -0.25
18 | SSRRRDLPTGAGPRLRRALT | < -0.25
19 | LPAYCSTVFHSWVGRR | < -0.25
20 | FLVEIPLWFQRAVCWHSELF | < -0.25
21 | GDFSLRHSAHGYEGWIVRVS | < -0.25
22 | LSMGWSRP | < -0.25
23 | LSRKICFRVKSCSGT | < -0.25
24 | HLILPGR | < -0.25
25 | MNANCLV | < -0.25
26 | FSRM | < -0.25

Row | Substance | growth estimate
27 | KRRSFQIGPLSRKVFGVGPQ | < -0.25
28 | RCDNW | < -0.25
29 | LHEPVRAGSP | < -0.25
30 | LLRARDCPSRLTSAYSSDIP | < -0.25
31 | GTCDAACGLFTPHFRSMCLG | < -0.25
32 | CVRNDFNLLIRIPVASLLLQ | -0.226
33 | RTQVVSVKWQRGTREVPVVR | < -0.25
34 | SEDLGQEDRAT | < -0.25
35 | KIATRSGALRPFPRARQVSA | < -0.25
36 | CNELRASRGRA | < -0.25
37 | EIQKGTA | < -0.25
38 | ATIHRGEESLLATNPRRTKF | < -0.25
39 | FHHD | < -0.25
40 | GDSLTRW | < -0.25
41 | VHRKNNGDHRRPGLNSRSMG | < -0.25
42 | KRRCVMVDVMDGPYGDRTGA | < -0.25
43 | ERICKKSASIASPR | < -0.25
44 | APRTLRCEVLSGS | -0.239
45 | LGRECAG | < -0.25
46 | ASPLCTSVQRTHMSRGDFTA | < -0.25
47 | WIFRVYASQT | < -0.25
48 | FQSRKIGGIQSRVNSQVSVK | -0.246
49 | QALEFRGGAGILLELAAIKG | < -0.25
50 | LPGTSTGHRAV | -0.245
51 | SWVNGPCTGA | < -0.25
52 | DWGGNRFPIQATSALLVEPT | < -0.25

Row | Substance | growth estimate
53 | FGLEWGGFGEVLQ | < -0.25
54 | PSDSCYGT | < -0.25
55 | NLKAEPMTD | < -0.25
56 | PHCISRASVRNIHRPLDRVV | 0.0112
57 | LSLSQ | < -0.25
58 | MLSRPFLVRTATASVRLSID | < -0.25
59 | LHSSRNQAKCRR | < -0.25
60 | FLHGNSQSCAMLGKA | < -0.25
61 | FTA | < -0.25
62 | SFWRPDS | < -0.25
63 | VVTRKGMGPGLSTRVTRRCD | < -0.25
64 | PCYVDSNRLHPVFDNTSIKV | < -0.25
65 | TCLELFPRDHRAPTTLLFKR | < -0.25
66 | TFGLYLSDGVCDSQAIGAC | < -0.25
67 | LAG | < -0.25
68 | GLILGESIKPIPVCDSSLFY | < -0.25
69 | LCVSSGLMSSPHDGFTRIGM | -0.209
70 | PTILRARFSAEASFRVVAIL | < -0.25
71 | LMLREGKFIITAPIRSGRIT | < -0.25
72 | WCSQSIMMSYSARETASPSL | < -0.25
73 | LWGNLQLRTATSVWGPKGSV | < -0.25
74 | CDPRHEWGYIVLLGSISVPL | < -0.25
75 | GIEMSRCLSHGIQRGAQRCL | < -0.25
76 | SLWARLVGISDRWH | < -0.25
77 | INDRRS | < -0.25
78 | DHSVHSFVVVYEASYP | < -0.25

Row | Substance | growth estimate
79 | PCIGSFSSDGG | < -0.25
80 | IFQSESIDDSSRWRET | < -0.25
81 | LSSAHRSIRERCARLTSGYT | < -0.25
82 | SYETMAQTTIGFVTKAIRLC | < -0.25
83 | VRFRAL | < -0.25
84 | DDAFFRGDNVPGRSRRTPWA | < -0.25
85 | LKSKVRVRM | < -0.25
86 | WLFFMYTRSGNEANQAGDPK | < -0.25
87 | AGCKSRRLP | < -0.25
88 | WTFFLESTVSSGR | < -0.25
89 | RVGVREFMRGIGCGTSSRAP | < -0.25
90 | SHPDPEIHRIVYT | < -0.25
91 | RGRN | < -0.25
92 | RMAGCSGFANGRIGMDLSRR | < -0.25
93 | FVRFVVAQVKYLCERPLISV | < -0.25
94 | GSNGGGYPSSPDRGAQVTHR | < -0.25
95 | PSCMDLVGGLARLANCHSAT | < -0.25
96 | GSINGSASSSQSYVITRFSS | < -0.25
97 | SLVVS | < -0.25
98 | SWCVLETFFI | < -0.25
99 | SGQEGQPLKLSAEHKSRRVS | < -0.25
100 | LVGGFGRLNSDSAPG | < -0.25
101 | TSHAAAQANVVMPFAQAVSN | < -0.25
102 | RESVFS | < -0.25
103 | AVSAARVHAWHPWLPKGSTG | < -0.25
104 | TKRNGKKSGKLYTWAAIR | -0.246

Row | Substance | growth estimate
105 | WIVEEPPSMNGGTGYKTAWV | < -0.25
106 | HILSHPVLFVSSGLMHYVQG | < -0.25
107 | APTYKLSTQQ | < -0.25
108 | LNIPITD | < -0.25
109 | RQSEYRIGSLQCILTV | < -0.25
110 | IPPVRRLRFSGKAGPVI | < -0.25
111 | GQND | < -0.25
112 | DSTHWAISEF | < -0.25
113 | HPWPALEDSIHVLFSRRFEV | < -0.25
114 | WSKSLNSNEPPIGLGLWP | < -0.25
115 | CQKWFCLN | < -0.25
116 | LPKVTGLGRPFGELMSMV | < -0.25
117 | FAGCLIGGIDPRRDRRHARS | < -0.25
118 | YLEWSASRVQETVSRIRLSR | < -0.25
119 | VGAFRYNE | < -0.25
120 | WWAESRST | < -0.25
121 | HISLVPPLVPSG | < -0.25
122 | EKNGSICAKSKRSV | < -0.25
123 | FYPYE | < -0.25
124 | VGQRALNGICFGVRFPFEND | < -0.25
125 | NAVMARSELKALKLVSILGS | < -0.25
126 | ESGWRA | < -0.25
127 | YREGRASESMMFIFQGLAPP | < -0.25
128 | RVGDYLFKSGSFSQAAHVDA | < -0.25
129 | DPRGYSCAYIFTSKRKMLYQ | < -0.25
130 | KGSLRVIGIGWLRAGRMDVR | < -0.25

Reprinted at random: 6 entries already listed, in no set order.
Row | Substance | growth estimate
109 | RQSEYRIGSLQCILTV | < -0.25
120 | WWAESRST | < -0.25
107 | APTYKLSTQQ | < -0.25
116 | LPKVTGLGRPFGELMSMV | < -0.25
112 | DSTHWAISEF | < -0.25
105 | WIVEEPPSMNGGTGYKTAWV | < -0.25

Later entries.

Row | Substance | growth estimate
131 | STNVVINYGTS | < -0.25
132 | WETPASTDWTQITRMSEY | -0.078
133 | VTPAHTLSGSGGVCNCVLSG | < -0.25
134 | NCPNANPN | < -0.25
135 | VKLVRMVTVVSVNYLSPCST | < -0.25
136 | EGSSAKLRRKF | < -0.25
137 | QKSTAASVSRHITSKIRVES | < -0.25
138 | QWSYKRGLSILGAVLLWGVF | < -0.25
139 | SFPVPHLWRLIGRRP | < -0.25
140 | HRLEHLDLVS | < -0.25
141 | PTVRDGLAYGWFDMRKSGMG | < -0.25
142 | QVYQGSIFMTSECIKES | < -0.25
143 | SVGSKSARFFCSAVIANHRF | < -0.25
144 | VMVAVNPRGTQLHIVDGRHW | -0.246
145 | QPPASRSMKLGYAGRQTIPK | < -0.25
146 | LGIQWGYLLRGD | < -0.25
147 | LVNGRPSRMLDKGYLVAPLA | < -0.25
148 | RAGTECRIFTLVKARIGSGP | < -0.25
149 | GFKGWRTYAHFTAECLKDRG | < -0.25
150 | ITRSPPDR | < -0.25
151 | PTMVKAFGWCMFGWATIRCR | < -0.25
152 | QSIKGHP | < -0.25
153 | IIRMPPGIEHASGSI | < -0.25
154 | YRIRRIGLGVNSEHAPGSGE | < -0.25
155 | AGLTLPGLDCTVQRSDRDQV | < -0.25
156 | GQFWG | < -0.25

Row | Substance | growth estimate
157 | TKAP | < -0.25
158 | GNTKGREGSQRK | < -0.25
159 | SARHKGFSFIDALQYAKLAR | < -0.25
160 | VTGWGLRQSTDARPRQAWYN | < -0.25
161 | NART | -0.243
162 | LEVAQ | < -0.25
163 | KYRPTVRASRPL | < -0.25
164 | RRSVNPWASWASSQGQTREG | < -0.25
165 | VTEQSFSKERRKMS | < -0.25
166 | DRRYVQIEALRRGLHDIR | < -0.25
167 | LEGLI | < -0.25
168 | LLLSGP | < -0.25
169 | VRRGEFSR | -0.246
170 | RKSTHGQHDAGLKFLKYSRL | < -0.25
171 | PPSQR | < -0.25
172 | YKSHSPRRLR | < -0.25
173 | LNSCAQFYTDGPLSWDASDI | < -0.25
174 | FLQLPRPYDADPQEAPFTVN | < -0.25
175 | DDRRIGSLPFRERFNYQVVQ | < -0.25
176 | LSDRRSLFLNRCETDSQIQP | < -0.25
177 | AGI | < -0.25
178 | TLSNVCLLYCLFGPVIHITH | < -0.25
179 | NPRIETRGSQFISRPSPHFR | < -0.25
180 | TAVP | < -0.25
181 | PSVASFNL | < -0.25
182 | ASSDNSPPPRVRK | < -0.25

Row | Substance | growth estimate
183 | GQIAAGGIGSARRSEK | -0.245
184 | REYRAAESESGSFKASPSPR | < -0.25
185 | QYDG | < -0.25
186 | HNRR | < -0.25
187 | SVNRPTTRYYSGACDSR | < -0.25
188 | LWKRSRSDLVNKAN | < -0.25
189 | INWKGLVVEVRQ | < -0.25
190 | YRGLALRWD | < -0.25
191 | GTVCVCKLGWYREEGQFMSS | < -0.25
192 | LWPRLVPAWPTDTRSPGSVR | < -0.25
193 | MRRDSTKCFRGVGNSTGTGK | < -0.25
194 | SLLFSCDIADIA | < -0.25
195 | VTSTGNKVGRP | < -0.25
196 | VPLLGRCMHAALHWCDNRPA | < -0.25
197 | QGMPLLAGHNFSSNSSVGSP | -0.246
198 | TGAS | < -0.25
199 | VIILYRDSINGLSSMASRGV | < -0.25
200 | MGI | < -0.25
201 | VELR | < -0.25

In another format: results already given.

| Row | Substance | growth estimate |
| --- | --- | --- |
| 72 | WCSQSIMMSYSARETASPSL | < -0.25 |
| 73 | LWGNLQLRTATSVWGPKGSV | < -0.25 |
| 74 | CDPRHEWGYIVLLGSISVPL | < -0.25 |
| 75 | GIEMSRCLSHGIQRGAQRCL | < -0.25 |
| 76 | SLWARLVGISDRWH | < -0.25 |
| 77 | INDRRS | < -0.25 |
| 78 | DHSVHSFVVVYEASYP | < -0.25 |
